Values from PubChem BioAssay AID1224827 (NIAID, 2016)

Screen: 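Identify regulators of the macrophage TNF-alpha response to bacterial LPS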 (follow-up of hits)
Cell system: RAW264.7 G9 mouse macrophage reporter clone
Knock-down reagent: single siRNA against mouse genes, 100 nM siRNA
Timing: siRNA for 2 days, then LPS about 16 h
Challenge: bacterial lipopolysaccharide (LPS), 10 ng/ml, cells fixed after overnight (about 16 h) stimulation
Measurement: 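TNF promoter reporter red fluorescence in nuclei, background subtracted, normalised per plate and to non-targeting control siRNA, as z-scores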
Scale: TNF reporter z-score, mean: higher = stronger Tnf promoter reporter signal
Call rule: 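Active siRNA: replicate-mean z-score of 2 or more, or -2 or less; no calls for control wells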
In all, the deposit lists about 3,800 reagents; this is a random part of them. About 2,200 of them (57%) count as active. 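Active means a strong reporter change in either direction; calls are per siRNA, not per gene; qiagen siRNAs gave weaker effects.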 A number with no mark means an inactive call. Reagents against one gene are numbered here. Not all columns of the deposit are shown. Reagent sequences are not shown.

BC051665 #1: TNF reporter z-score, mean = 14.5 (active)
BC051665 #2: TNF reporter z-score, mean = -0.948
BC051665 #3: TNF reporter z-score, mean = -4.36 (active)
BC051665 #4: TNF reporter z-score, mean = 4.73 (active)
BC051665 #5: TNF reporter z-score, mean = 2.91 (active)
BC051665 #6: TNF reporter z-score, mean = -1.29
Med14 #1: TNF reporter z-score, mean = 1.3
Med14 #2: TNF reporter z-score, mean = -1.9
Med14 #3: TNF reporter z-score, mean = -3.63 (active)
Med14 #4: TNF reporter z-score, mean = -0.105
Med14 #5: TNF reporter z-score, mean = -1.59
Med14 #6: TNF reporter z-score, mean = -1.35
R3hdm2 #1: TNF reporter z-score, mean = 1.46
R3hdm2 #2: TNF reporter z-score, mean = -3.34 (active)
R3hdm2 #3: TNF reporter z-score, mean = -3.94 (active)
R3hdm2 #4: TNF reporter z-score, mean = -1.78
R3hdm2 #5: TNF reporter z-score, mean = -2.66 (active)
R3hdm2 #6: TNF reporter z-score, mean = -3.53 (active)
Klk1 #1: TNF reporter z-score, mean = -1.88
Klk1 #2: TNF reporter z-score, mean = -4.07 (active)
Klk1 #3: TNF reporter z-score, mean = -5.14 (active)
Klk1 #4: TNF reporter z-score, mean = 2.46 (active)
Klk1 #5: TNF reporter z-score, mean = 1.61
Klk1 #6: TNF reporter z-score, mean = -4.03 (active)
